# Assay results taken from patent US12433900B2, “Intravitreal corticosteroid extended release implant and methods of use” (Eyedea Bio, LLC, priority 2021, dated 2025).
# At least one compound was matched to its structure with a doubt left.
# Experiment: Calculated Octanol Solubility Index (OSI) and Topological Polar Surface Area (TPSA) of the API
# Details: calculated using the log P and maximal aqueous solubility
smiles,measurement,value
"CC1(C)O[C@@H]2C[C@H]3[C@@H]4CCC5=CC(=O)C=C[C@]5(C)[C@@]4(F)[C@@H](O)C[C@]3(C)[C@]2(C(=O)CO)O1 [triamcinolone acetonide, 9α-fluoro-11β,16α,17α,21-tetrahydroxypregna-1,4-diene-3,20-dione cyclic 16α,17α-acetal with acetone]",OSI (Octanol Solubility Index),3.82
